The comparison behind a weaker result is the experiment's own reference, which may not be listed here. Tags and fusion partners may be left off the protein sequences shown. For some assays here: For at least one entry, the source does not settle the construct or the ends of the probe. For some assays here: At least one verdict was read from the data and is not stated in words by the source.
Columns and labels:
[1] = target: T1, RADA (Arabidopsis thaliana) (UniProt F4K8X8); experiment: EMSA; conditions: 20 mM Tris-HCl pH 7.5, 50 mM KCl, 5 mM MgCl2, 0.5 mM EDTA, 10% glycerol, 1 mM DTT, protease inhibitors; 20 C, 20 min; 8 or 4.5% PAGE in TBE at 4 C; recombinant protein; residues 49-627; protein details: N-terminal His (pET28a); label: 5'-32P on sense strand
T1 sequence (looked up): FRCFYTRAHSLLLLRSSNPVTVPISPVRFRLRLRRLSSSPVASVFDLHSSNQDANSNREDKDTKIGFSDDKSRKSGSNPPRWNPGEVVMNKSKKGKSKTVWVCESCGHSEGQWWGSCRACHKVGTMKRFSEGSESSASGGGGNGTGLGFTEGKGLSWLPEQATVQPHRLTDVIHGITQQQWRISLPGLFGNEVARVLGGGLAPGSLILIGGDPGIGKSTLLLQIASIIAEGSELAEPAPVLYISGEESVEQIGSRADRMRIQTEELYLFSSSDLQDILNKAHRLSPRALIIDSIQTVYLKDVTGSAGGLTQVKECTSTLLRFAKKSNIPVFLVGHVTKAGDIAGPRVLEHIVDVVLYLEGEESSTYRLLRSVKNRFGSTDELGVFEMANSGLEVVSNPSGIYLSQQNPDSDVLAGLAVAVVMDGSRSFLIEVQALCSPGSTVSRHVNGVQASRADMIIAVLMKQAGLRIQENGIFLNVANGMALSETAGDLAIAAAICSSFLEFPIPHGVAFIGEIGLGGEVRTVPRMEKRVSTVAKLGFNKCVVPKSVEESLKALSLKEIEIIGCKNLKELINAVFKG

[2] = target: T1, RADA (Arabidopsis thaliana); experiment: competition with a labelled probe; conditions: less efficient competitor than homologous 30-mer; 20 mM Tris-HCl pH 7.5, 50 mM KCl, 5 mM MgCl2, 0.5 mM EDTA, 10% glycerol, 1 mM DTT, protease inhibitors; 20 C, 20 min; 8 or 4.5% PAGE in TBE at 4 C; recombinant protein; residues 49-627; protein details: N-terminal His (pET28a); single-stranded DNA

Row | Sequence | binding result [1] | binding result [2]
1 | GACGCTGCCGAATTCTACCAGTGCCTTGCTAGGACATCTTTGCCCACCTGCAGGTTCACCC / TAGCAAGGCACTGGTAGAATTCGGCAGCGTC [EMSA 3' overhang] | binds | 
2 | GACGCTGCCGAATTCTACCAGTGCCTTGCTAGGACATCTTTGCCCACCTGCAGGTTCACCC (double strand) [EMSA dsDNA] | binds more weakly | 
3 | GACGCTGCCGAATTCTACCAGTGCCTTGCTAGGACATCTTTGCCCACCTGCAGGTTCACCC / ATCGATAGTCGGATCCTCTAGACAGCATGTCCTAGCAAGGCACTGGTAGAATTCGGCAGCGT [EMSA fork] | binds | 
4 | AAAAAAAAAAAAAAAAAAAAAAAAAAAAAA [poly-dA 30-mer] |  | binds more weakly
5 | GACGCTGCCGAATTCTACCAGTGCCTTGCTAGGACATCTTTGCCCACCTGCAGGTTCACCC / GGGTGAACCTGCAGGTGGGCAAAGATGTCC [EMSA 5' overhang] | binds | 
